The list shows a part of the results.
How the values were obtained:
Assay in all cases: log2 fold change, soluble protein after heating vs DMSO (PISA); higher = thermal stabilisation; K562 cells, 10 uM, 30 min; active = over 0.2 and 3.5 SD of the protein, either way, in both replicates (recomputed)
[1] = compound: Cc1ccc(NC(=O)c2ccc(CN3CC[C@H](N(C)C)C3)c(C(F)(F)F)c2)cc1Nc1nccc(-c2cncnc2)n1 [bafetinib]
Outline: (§1)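 Values are thermal stability changes relative to control samples and are taken from duplicates. They are stated as log2 fold changes. Before quantification by TMTpro 16plex LC-MS/MS with equalised channel sums, K562 cells at 2×10^6 cells/mL were treated with 10 μM compound for 30 min, heated in aliquots for 3 min across 48°C-58°C, pooled, extracted in PBS with 0.5% NP-40 at 4°C, and centrifuged at 21,000xg for 90 min to give the soluble supernatant.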

Chains of the proteins cited; added tags and fusions are not shown. Lines headed by an entry give the natural chain unless they say otherwise; changes in a name come on top.
UniProt Q99523, whole entry, looked up: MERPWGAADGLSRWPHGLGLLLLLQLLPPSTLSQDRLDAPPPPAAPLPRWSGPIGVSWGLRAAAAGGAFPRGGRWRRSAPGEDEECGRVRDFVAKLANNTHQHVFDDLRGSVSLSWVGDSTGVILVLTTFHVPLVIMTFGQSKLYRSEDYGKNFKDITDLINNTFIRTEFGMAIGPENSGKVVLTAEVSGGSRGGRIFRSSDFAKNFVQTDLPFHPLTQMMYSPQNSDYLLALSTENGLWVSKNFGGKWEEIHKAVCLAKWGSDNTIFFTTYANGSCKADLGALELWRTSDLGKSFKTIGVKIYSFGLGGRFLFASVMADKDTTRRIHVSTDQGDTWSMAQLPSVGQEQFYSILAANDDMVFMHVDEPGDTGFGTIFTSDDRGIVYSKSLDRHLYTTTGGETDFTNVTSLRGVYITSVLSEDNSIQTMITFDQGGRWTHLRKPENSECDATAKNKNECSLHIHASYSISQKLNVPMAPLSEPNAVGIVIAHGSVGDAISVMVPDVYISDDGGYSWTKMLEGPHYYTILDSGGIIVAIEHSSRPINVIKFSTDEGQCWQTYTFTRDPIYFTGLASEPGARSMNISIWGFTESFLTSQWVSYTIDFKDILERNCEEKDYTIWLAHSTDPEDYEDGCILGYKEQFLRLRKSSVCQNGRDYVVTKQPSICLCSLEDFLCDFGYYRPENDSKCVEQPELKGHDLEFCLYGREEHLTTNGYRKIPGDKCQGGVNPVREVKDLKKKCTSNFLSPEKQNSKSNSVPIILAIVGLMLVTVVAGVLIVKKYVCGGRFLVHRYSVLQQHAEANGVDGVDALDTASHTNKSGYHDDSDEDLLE
UniProt P62314, whole entry, looked up: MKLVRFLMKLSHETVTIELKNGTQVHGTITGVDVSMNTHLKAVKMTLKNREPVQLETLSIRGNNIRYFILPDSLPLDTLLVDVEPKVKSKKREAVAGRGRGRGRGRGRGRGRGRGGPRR
UniProt Q6GMV2: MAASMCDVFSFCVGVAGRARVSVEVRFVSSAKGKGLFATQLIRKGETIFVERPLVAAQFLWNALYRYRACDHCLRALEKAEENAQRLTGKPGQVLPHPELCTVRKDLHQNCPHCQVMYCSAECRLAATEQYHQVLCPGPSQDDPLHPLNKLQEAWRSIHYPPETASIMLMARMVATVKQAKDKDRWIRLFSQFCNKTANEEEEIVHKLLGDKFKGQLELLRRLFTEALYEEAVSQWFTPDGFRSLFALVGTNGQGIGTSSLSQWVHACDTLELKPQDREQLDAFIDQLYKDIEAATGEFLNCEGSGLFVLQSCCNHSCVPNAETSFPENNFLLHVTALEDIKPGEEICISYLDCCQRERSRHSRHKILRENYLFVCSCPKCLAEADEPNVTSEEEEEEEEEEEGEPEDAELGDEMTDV
UniProt Q7KZF4: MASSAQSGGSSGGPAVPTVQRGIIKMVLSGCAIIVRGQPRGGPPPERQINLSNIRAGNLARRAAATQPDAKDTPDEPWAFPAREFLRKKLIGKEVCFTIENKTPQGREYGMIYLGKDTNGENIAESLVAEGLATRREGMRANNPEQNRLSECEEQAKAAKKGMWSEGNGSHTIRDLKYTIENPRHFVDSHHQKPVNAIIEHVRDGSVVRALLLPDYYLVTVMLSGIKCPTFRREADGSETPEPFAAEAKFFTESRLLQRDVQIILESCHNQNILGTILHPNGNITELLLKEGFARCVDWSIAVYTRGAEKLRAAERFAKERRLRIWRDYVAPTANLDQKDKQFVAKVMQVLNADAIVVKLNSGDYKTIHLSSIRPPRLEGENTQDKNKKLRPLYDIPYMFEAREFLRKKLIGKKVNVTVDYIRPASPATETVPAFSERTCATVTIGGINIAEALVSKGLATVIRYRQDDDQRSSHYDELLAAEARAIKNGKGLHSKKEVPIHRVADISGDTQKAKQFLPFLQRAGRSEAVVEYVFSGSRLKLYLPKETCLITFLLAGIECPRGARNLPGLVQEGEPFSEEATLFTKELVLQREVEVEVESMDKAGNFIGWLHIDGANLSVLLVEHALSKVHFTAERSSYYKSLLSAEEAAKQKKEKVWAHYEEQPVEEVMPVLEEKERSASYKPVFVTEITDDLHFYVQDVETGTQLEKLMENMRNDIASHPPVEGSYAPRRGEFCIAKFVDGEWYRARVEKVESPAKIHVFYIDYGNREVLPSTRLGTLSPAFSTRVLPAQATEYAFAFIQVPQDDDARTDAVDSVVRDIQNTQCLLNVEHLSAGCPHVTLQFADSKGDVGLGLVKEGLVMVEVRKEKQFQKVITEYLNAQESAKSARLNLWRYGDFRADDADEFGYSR
UniProt Q13573: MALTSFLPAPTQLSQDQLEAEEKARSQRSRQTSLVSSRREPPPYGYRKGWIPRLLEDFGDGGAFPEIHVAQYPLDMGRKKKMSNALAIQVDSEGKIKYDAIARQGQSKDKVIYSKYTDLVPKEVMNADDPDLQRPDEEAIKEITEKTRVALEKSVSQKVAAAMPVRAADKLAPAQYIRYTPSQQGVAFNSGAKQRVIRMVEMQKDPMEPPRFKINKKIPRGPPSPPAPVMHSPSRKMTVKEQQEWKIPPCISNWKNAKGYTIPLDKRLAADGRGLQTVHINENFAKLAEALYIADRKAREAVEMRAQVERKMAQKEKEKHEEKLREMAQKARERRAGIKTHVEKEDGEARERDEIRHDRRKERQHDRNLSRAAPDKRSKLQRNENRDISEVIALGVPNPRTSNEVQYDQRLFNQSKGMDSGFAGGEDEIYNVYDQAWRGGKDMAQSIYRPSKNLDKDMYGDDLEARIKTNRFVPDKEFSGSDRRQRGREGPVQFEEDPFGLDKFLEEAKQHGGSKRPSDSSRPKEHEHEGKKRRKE
UniProt Q9Y5W9: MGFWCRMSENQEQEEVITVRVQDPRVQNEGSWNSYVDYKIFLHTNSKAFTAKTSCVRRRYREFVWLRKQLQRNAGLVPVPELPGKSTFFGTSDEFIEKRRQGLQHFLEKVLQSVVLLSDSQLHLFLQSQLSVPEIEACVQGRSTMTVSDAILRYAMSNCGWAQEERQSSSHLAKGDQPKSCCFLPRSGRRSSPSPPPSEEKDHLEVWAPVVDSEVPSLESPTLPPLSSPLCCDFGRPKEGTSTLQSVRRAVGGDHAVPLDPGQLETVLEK
UniProt Q16637, whole entry, looked up: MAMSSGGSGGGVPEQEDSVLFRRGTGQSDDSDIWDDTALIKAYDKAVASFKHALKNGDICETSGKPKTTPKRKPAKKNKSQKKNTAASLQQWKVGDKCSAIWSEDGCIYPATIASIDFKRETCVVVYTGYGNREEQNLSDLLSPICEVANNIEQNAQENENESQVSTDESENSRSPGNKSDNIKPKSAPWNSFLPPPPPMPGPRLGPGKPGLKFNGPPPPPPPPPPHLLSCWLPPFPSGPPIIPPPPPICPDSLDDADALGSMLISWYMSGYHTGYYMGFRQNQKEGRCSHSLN
UniProt P08621, whole entry, looked up: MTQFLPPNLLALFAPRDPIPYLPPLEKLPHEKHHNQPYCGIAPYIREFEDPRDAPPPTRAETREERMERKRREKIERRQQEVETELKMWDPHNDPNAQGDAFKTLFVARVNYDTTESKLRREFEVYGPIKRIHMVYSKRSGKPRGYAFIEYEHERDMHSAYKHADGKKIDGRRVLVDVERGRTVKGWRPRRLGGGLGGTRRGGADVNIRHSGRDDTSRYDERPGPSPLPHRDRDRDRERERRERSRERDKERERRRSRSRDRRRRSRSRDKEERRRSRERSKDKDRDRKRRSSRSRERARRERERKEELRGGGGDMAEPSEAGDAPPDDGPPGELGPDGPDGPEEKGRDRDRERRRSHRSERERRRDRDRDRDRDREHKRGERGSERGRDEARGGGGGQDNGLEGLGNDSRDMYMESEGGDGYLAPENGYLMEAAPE
UniProt Q8IYB5: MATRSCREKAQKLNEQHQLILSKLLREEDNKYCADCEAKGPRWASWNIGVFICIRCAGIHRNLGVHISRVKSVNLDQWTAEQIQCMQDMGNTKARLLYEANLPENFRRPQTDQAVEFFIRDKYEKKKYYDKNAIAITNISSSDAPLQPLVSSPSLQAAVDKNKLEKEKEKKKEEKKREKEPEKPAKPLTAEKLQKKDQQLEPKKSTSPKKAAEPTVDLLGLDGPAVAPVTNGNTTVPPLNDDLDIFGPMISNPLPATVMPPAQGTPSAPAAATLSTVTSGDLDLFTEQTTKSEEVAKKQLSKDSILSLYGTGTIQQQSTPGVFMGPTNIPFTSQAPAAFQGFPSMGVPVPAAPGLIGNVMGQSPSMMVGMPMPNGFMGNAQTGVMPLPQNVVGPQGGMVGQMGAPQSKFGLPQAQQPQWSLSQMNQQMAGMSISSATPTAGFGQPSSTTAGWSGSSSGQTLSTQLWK
UniProt P09012, whole entry, looked up: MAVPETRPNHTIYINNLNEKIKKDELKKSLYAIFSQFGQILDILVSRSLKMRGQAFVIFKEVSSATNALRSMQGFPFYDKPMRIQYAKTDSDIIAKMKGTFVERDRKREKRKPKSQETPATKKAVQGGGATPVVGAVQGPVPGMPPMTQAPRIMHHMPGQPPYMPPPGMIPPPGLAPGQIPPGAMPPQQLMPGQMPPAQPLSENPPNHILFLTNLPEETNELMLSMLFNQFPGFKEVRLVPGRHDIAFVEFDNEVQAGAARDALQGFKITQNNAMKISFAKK
UniProt P04179: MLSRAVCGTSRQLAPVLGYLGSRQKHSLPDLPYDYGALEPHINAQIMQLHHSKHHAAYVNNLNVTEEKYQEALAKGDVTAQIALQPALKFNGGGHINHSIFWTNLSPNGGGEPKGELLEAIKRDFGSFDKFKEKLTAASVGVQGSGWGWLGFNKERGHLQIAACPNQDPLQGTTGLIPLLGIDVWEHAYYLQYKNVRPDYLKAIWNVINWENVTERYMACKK
UniProt P62316, whole entry, looked up: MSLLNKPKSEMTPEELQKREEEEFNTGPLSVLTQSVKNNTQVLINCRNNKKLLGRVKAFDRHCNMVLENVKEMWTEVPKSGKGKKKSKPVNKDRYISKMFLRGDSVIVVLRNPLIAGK
UniProt Q9Y5X1: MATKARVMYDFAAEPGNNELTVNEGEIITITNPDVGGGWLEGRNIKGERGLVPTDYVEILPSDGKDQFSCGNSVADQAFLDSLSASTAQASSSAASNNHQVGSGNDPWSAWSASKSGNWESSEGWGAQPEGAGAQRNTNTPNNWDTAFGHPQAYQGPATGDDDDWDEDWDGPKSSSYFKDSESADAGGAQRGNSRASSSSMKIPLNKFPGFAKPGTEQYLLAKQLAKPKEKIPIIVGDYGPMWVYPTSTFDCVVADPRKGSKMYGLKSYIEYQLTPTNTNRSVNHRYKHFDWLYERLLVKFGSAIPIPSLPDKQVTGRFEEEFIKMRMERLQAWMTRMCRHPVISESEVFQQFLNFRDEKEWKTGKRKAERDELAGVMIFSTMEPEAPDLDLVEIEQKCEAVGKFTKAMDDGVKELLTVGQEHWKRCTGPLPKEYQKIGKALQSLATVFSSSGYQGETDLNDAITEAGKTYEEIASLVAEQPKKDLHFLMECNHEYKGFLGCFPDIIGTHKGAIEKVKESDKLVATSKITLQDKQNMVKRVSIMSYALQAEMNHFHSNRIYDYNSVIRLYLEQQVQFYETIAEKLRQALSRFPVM
UniProt P62318, whole entry, looked up: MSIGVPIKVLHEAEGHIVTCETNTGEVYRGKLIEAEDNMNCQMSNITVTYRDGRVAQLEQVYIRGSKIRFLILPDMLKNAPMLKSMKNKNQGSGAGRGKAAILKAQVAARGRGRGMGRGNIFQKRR
UniProt O95295: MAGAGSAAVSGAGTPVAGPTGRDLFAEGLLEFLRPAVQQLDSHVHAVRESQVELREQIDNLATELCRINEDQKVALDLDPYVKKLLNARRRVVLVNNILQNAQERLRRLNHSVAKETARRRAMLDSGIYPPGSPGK
UniProt O15198: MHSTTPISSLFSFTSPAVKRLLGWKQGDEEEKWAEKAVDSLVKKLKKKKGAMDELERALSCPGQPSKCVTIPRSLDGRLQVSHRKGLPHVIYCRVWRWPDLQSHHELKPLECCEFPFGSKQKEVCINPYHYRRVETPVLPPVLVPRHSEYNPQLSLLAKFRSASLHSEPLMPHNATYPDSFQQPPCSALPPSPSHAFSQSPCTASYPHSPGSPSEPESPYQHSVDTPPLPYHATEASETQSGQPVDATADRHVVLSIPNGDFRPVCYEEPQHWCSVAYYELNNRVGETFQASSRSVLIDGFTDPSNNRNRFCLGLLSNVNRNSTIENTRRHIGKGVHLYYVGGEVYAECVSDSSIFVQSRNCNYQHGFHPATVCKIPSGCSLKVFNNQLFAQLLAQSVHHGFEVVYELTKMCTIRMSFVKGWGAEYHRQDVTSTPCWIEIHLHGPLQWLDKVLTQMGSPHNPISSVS
UniProt O14745: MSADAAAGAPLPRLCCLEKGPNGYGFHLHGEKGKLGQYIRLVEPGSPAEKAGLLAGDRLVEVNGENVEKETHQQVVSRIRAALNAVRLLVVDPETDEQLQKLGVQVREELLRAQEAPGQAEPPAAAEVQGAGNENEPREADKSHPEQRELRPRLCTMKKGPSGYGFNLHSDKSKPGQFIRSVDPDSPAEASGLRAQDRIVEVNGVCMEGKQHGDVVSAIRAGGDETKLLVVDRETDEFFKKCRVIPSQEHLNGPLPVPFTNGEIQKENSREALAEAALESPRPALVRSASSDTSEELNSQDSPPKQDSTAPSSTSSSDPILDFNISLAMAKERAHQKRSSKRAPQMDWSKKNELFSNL

[2] = compound: Cc1cccc(CC(=O)N2CCc3c2ccc(-c2cn(C)c4ncnc(N)c24)c3F)n1
Outline: as §1

[3] = compound: Cc1cn(-c2cc(NC(=O)c3ccc(C)c(Nc4nccc(-c5cccnc5)n4)c3)cc(C(F)(F)F)c2)cn1 [nilotinib]
Outline: as §1

[4] = compound: Cc1nc(Nc2n[nH]c3c2CN(C(=O)N[C@H](CN(C)C)c2ccccc2)C3(C)C)c2sccc2n1
Outline: as §1

[5] = compound: Cc1nc(Nc2ncc(C(=O)Nc3c(C)cccc3Cl)s2)cc(N2CCN(CCO)CC2)n1 [dasatinib]
Outline: as §1

[6] = compound: Cc1ncc(-c2ccnc(Nc3ccc(S(C)(=O)=O)cc3)n2)n1C(C)C
Outline: as §1

[7] = compound: Cn1cc(-c2ccc3c(c2)CCN3C(=O)Cc2cccc(C(F)(F)F)c2)c2c(N)ncnc21
Outline: as §1

[8] = compound: Cn1cc(-c2ccc3nnc(C(F)(F)c4ccc5ncccc5c4)n3n2)cn1
Outline: as §1

[9] = compound: Cn1cncc1[C@@](N)(c1ccc(Cl)cc1)c1ccc2c(c1)c(-c1cccc(Cl)c1)cc(=O)n2C [tipifarnib]
Outline: as §1

[10] = compound: FC(F)(F)c1ccc(/C=C/c2nc(COc3ccc(CCCCn4ccnn4)cc3)co2)cc1 [mubritinib]
Outline: as §1

Row | Target | log2 fold change [1] | log2 fold change [2] | log2 fold change [3] | log2 fold change [4] | log2 fold change [5] | log2 fold change [6] | log2 fold change [7] | log2 fold change [8] | log2 fold change [9] | log2 fold change [10]
1 | SP1 (UniProt P08047) | inactive: -0.041 | inactive: -0.006 | inactive: 0.005 | inactive: -0.003 | inactive: -0.005 | inactive: -0.02 | inactive: -0.018 | inactive: 0.091 | inactive: 0.01 | inactive: -0.023
2 | SORT1 (UniProt Q99523) | active: -0.494 | inactive: -0.011 | inactive: 0.041 | inactive: -0.023 | inactive: 0.02 | inactive: -0.122 | inactive: 0.018 | inactive: -0.026 | inactive: 0.076 | inactive: 0.045
3 | SNRPD2 (UniProt K7EJB5) | inactive: 0.105 | inactive: -0.254 | inactive: -0.136 | inactive: 0.13 | inactive: 0.134 | inactive: 0.037 | inactive: -0.147 | inactive: 0.067 | inactive: 0.12 | inactive: -0.007
4 | SMC1A (UniProt Q14683) | inactive: -0.012 | inactive: -0.007 | inactive: 0.027 | inactive: -0.069 | inactive: -0.028 | inactive: -0.037 | inactive: 0.007 | inactive: -0.002 | inactive: 0.001 | inactive: 0.032
5 | SNRPD1 (UniProt P62314) | inactive: 0.058 | inactive: -0.176 | inactive: 0.017 | inactive: 0.068 | inactive: 0.114 | inactive: 0.068 | inactive: -0.05 | inactive: -0.019 | inactive: 0.068 | inactive: -0.003
6 | SNRPA1 (UniProt P09661) | inactive: 0.046 | inactive: -0.054 | inactive: 0.009 | inactive: 0.087 | inactive: 0.082 | inactive: 0.111 | inactive: -0.04 | inactive: -0.03 | inactive: 0.019 | inactive: 0.003
7 | SMYD5 (UniProt Q6GMV2) | inactive: -0.033 | inactive: 0.002 | inactive: -0.035 | inactive: -0.019 | inactive: -0.017 | inactive: 0 | inactive: 0.024 | inactive: -0.026 | inactive: -0.012 | inactive: -0.017
8 | SND1 (UniProt Q7KZF4) | inactive: 0.224 | inactive: 0 | inactive: -0.04 | inactive: -0.096 | inactive: 0.083 | inactive: 0.047 | inactive: -0.334 | inactive: -0.355 | inactive: 0.088 | inactive: -0.237
9 | SNW1 (UniProt Q13573) | inactive: -0.049 | inactive: -0.071 | inactive: 0.004 | inactive: 0.067 | inactive: 0.027 | inactive: 0.088 | inactive: -0.055 | inactive: -0.043 | inactive: 0.026 | inactive: -0.006
10 | SNU13, A0A3B3IUA2 | inactive: -0.009 | inactive: -0.129 | inactive: -0.228 | inactive: 0.035 | inactive: 0.084 | inactive: -0.16 | inactive: -0.071 | inactive: 0.132 | inactive: 0.056 | inactive: 0.047
11 | SLFN14 (UniProt P0C7P3) | inactive: -0.047 | inactive: -0.059 | inactive: -0.057 | inactive: -0.192 | inactive: 0.055 | inactive: 0.069 | inactive: 0.22 | inactive: 0.054 | inactive: 0.02 | inactive: 0.052
12 | SNX11 (UniProt Q9Y5W9) | inactive: -0.259 | inactive: 0.081 | inactive: -0.033 | inactive: -0.108 | inactive: -0.022 | active: -0.44 | inactive: 0.077 | inactive: 0.002 | inactive: 0.178 | inactive: -0.015
13 | SMN1 (UniProt Q16637) | inactive: 0.179 | inactive: 0.04 | inactive: 0.025 | inactive: -0.151 | inactive: -0.034 | inactive: -0.013 | inactive: -0.122 | inactive: -0.024 | inactive: -0.041 | inactive: 0.06
14 | SNRNP70 (UniProt P08621) | inactive: 0.132 | inactive: -0.066 | inactive: 0.05 | inactive: -0.256 | inactive: 0.174 | inactive: 0.259 | inactive: -0.215 | inactive: -0.198 | inactive: 0.083 | inactive: -0.114
15 | SMAP1 isoform 2 (UniProt Q8IYB5) | inactive: 0.026 | inactive: 0.034 | inactive: 0.034 | inactive: -0.111 | inactive: 0 | inactive: 0.019 | inactive: 0.006 | inactive: -0.014 | inactive: -0.084 | inactive: 0.043
16 | SNRPA (UniProt P09012) | inactive: -0.023 | inactive: -0.106 | inactive: 0.037 | inactive: 0.051 | inactive: 0.188 | inactive: 0.088 | inactive: -0.129 | inactive: -0.039 | inactive: 0.067 | inactive: -0.013
17 | SOD2 (UniProt P04179) | inactive: -0.041 | inactive: -0.011 | inactive: 0.051 | inactive: -0.004 | inactive: 0.063 | inactive: -0.007 | inactive: 0.038 | inactive: 0.026 | inactive: 0.058 | inactive: 0.004
18 | SMU1 (UniProt Q2TAY7) | inactive: 0.066 | inactive: 0.019 | inactive: 0.004 | inactive: -0.032 | inactive: -0.039 | inactive: 0.034 | inactive: -0.077 | inactive: -0.02 | inactive: -0.008 | inactive: -0.017
19 | SNRPD2 (UniProt P62316) | inactive: 0.002 | inactive: -0.03 | inactive: 0.039 | inactive: 0.06 | inactive: 0.144 | inactive: 0.074 | inactive: -0.104 | inactive: -0.026 | inactive: 0.046 | inactive: 0.016
20 | SNX9 (UniProt Q9Y5X1) | inactive: -0.015 | inactive: 0.03 | inactive: -0.06 | inactive: -0.064 | inactive: -0.131 | inactive: 0.006 | inactive: -0.023 | inactive: -0.008 | inactive: -0.013 | inactive: 0.009
21 | SNRPD3 (UniProt P62318) | inactive: 0.013 | inactive: -0.077 | inactive: 0.034 | inactive: 0.077 | inactive: 0.08 | inactive: 0.107 | inactive: -0.097 | inactive: -0.06 | inactive: 0.024 | inactive: 0.011
22 | SNAPIN (UniProt O95295) | inactive: -0.031 | inactive: 0 | inactive: -0.035 | inactive: -0.014 | inactive: -0.024 | inactive: 0.01 | inactive: 0.036 | inactive: 0.096 | inactive: 0.035 | inactive: 0.011
23 | SMAD9 (UniProt O15198) | inactive: -0.102 | inactive: -0.226 | inactive: -0.113 | inactive: 0.004 | inactive: -0.077 | inactive: -0.114 | inactive: 0.058 | inactive: 0.015 | inactive: -0.069 | inactive: -0.067
24 | SLC9A3R1 (UniProt O14745) | inactive: -0.041 | inactive: -0.017 | inactive: 0.027 | inactive: 0.017 | inactive: 0.014 | inactive: -0.001 | inactive: 0.024 | inactive: 0.01 | inactive: -0.021 | inactive: 0.024
25 | SMC6 isoform 2 (UniProt Q96SB8) | inactive: -0.028 | inactive: 0.007 | inactive: 0.04 | inactive: -0.115 | inactive: 0.016 | inactive: 0.022 | inactive: 0.041 | inactive: -0.027 | inactive: 0.036 | inactive: 0.049

Full records, quoted from the list. Values in the order: log2 fold change [1] | log2 fold change [2] | log2 fold change [3] | log2 fold change [4] | log2 fold change [5] | log2 fold change [6] | log2 fold change [7] | log2 fold change [8] | log2 fold change [9] | log2 fold change [10]
SND1 (UniProt Q7KZF4) is listed with inactive: 0.224 | inactive: 0 | inactive: -0.04 | inactive: -0.096 | inactive: 0.083 | inactive: 0.047 | inactive: -0.334 | inactive: -0.355 | inactive: 0.088 | inactive: -0.237
SNRPD1 (UniProt P62314) is listed with inactive: 0.058 | inactive: -0.176 | inactive: 0.017 | inactive: 0.068 | inactive: 0.114 | inactive: 0.068 | inactive: -0.05 | inactive: -0.019 | inactive: 0.068 | inactive: -0.003

From the supplement of paper PMC10849652
